Test results taken from paper PMC7922284.
No constants are given. Whether binding was seen depends on the method and setting. Binding seen in cells or lysates may run through a third protein. Some results given as binding are weak or reduced against the parent protein; the word gives no strength. For some assays here: Sequences can lack the tags named with a protein.

Protein sequences, listed by entry. Tags and fused reporters are not part of them.
UniProt P23528: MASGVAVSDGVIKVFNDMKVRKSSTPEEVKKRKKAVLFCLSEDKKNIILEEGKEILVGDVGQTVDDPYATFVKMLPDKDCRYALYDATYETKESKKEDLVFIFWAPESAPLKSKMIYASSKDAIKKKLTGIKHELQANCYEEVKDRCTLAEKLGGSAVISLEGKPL

Experiments:
[1] = target: T1, ABRACL, endogenous in HCT116 cells (human (endogenous in HCT116)) (UniProt Q9P1F3); assay: proximity ligation; Duolink in situ PLA on fixed, permeabilized HCT116 cells plated on fibronectin; rabbit anti-ABRACL and mouse anti-cofilin; shLuc control against ABRACL- or cofilin-knockdown cells
T1 sequence: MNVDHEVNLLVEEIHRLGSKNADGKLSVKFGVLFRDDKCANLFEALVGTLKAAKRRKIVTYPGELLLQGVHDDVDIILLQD

ABRACL-Myc-His (human) = target: T2, ABRACL-Myc-His (human) (UniProt Q9P1F3); assay: co-IP; lysates of cells transfected with control vector or pcDNA3.1Myc/His-ABRACL; immunoprecipitation with anti-Myc antibodies or IgG; Western analysis
T2 sequence: T1 sequence

binding [1] | binding (ABRACL-Myc-His (human)) | Substance
binds | – | cofilin, endogenous in HCT116 cells (from UniProt P23528 1-166)
– | binds | cofilin, endogenous in the transfected cells used for co-immunoprecipitation (from UniProt P23528 1-166)
